Experiment [1] deals with T1, CP190 M domain (309–470) fused to the GAL4 DNA-binding domain (Drosophila melanogaster) (UniProt Q24478).
T1 sequence: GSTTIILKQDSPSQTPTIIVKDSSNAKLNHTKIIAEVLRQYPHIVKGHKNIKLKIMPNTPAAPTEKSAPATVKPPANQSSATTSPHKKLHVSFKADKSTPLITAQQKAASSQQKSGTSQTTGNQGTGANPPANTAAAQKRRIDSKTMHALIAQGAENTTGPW
The experiment in a line: two-hybrid; C2H2 proteins or their fragments fused to the GAL4 activation domain (pGAD424), CP190 BTB, D or M domain or full-length CP190 fused to the GAL4 DNA-binding domain (pGBT9); yeast strain pJ69-4A; growth on media without tryptophan, leucine, histidine and adenine compared after 2–3 days, 30 °C; includes the screen of a library of 154 C2H2 proteins.

For experiment [2], the target named is T2, CP190 D domain fused to the GAL4 DNA-binding domain (Drosophila melanogaster) (UniProt Q24478).
T2 sequence: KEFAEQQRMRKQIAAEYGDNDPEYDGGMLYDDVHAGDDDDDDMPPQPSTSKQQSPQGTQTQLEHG
The experiment is described as above.

The target in experiment [3] is CP190 BTB domain V114N fused to the GAL4 DNA-binding domain (Drosophila melanogaster). The experiment is described as above.
The target of experiment [4] is CP190 BTB domain fused to the GAL4 DNA-binding domain (Drosophila melanogaster). The experiment is described as above.
In experiment [5] the target is CP190 BTB domain L118A fused to the GAL4 DNA-binding domain (Drosophila melanogaster). Described as above.
The target of experiment [6] is CP190 BTB domain F15A fused to the GAL4 DNA-binding domain (Drosophila melanogaster). The experiment is described as above.
Experiment [7] has as its target CP190 BTB domain K117S fused to the GAL4 DNA-binding domain (Drosophila melanogaster). The experiment is described as above.
The target of experiment [8] is CP190 BTB domain V7A fused to the GAL4 DNA-binding domain (Drosophila melanogaster). The description is as above.
In experiment [9] the target is CP190 BTB domain K19A fused to the GAL4 DNA-binding domain (Drosophila melanogaster). The description is as above.
For experiment [10], the target named is CP190 BTB domain V114A fused to the GAL4 DNA-binding domain (Drosophila melanogaster). The experiment is described as above.
Experiment [11] addresses GST-fused CG4730 1–133 (Drosophila melanogaster). Put plainly: pull-down; GST pull-down from lysate of BL21 cells co-expressing the GST-fused C2H2 fragment and 6×His-Thioredoxin-fused CP190 1–126; glutathione agarose, buffer C (20 mM Tris pH 7.5, 150 mM NaCl, 10 mM MgCl2, 0.1 mM ZnCl2, 0.1% NP40, 10% glycerol, 1 mM DTT), +4 °C, washes with 500 mM NaCl.
In experiment [12] the target is GST-fused CG4730 ZAD domain (Drosophila melanogaster). The experiment is described as above.
Experiment [13] concerns the target GST-fused CG31365 368–455 (Drosophila melanogaster). The description is as above.
For experiment [14], the target named is GST-fused CG31365 324–455 (Drosophila melanogaster). The description is as above.

Results are given in words; binding and its absence hold for the method and conditions named. A result given as binding can be weak or reduced; the word gives no strength. Sequences can lack the tags named with a protein. For part of these data: Binding seen in cells or lysates may run through a third protein.

For the molecule “CG4730 full-length fused to the GAL4 activation domain (Drosophila melanogaster)”, the binding entry in experiment [1] and in experiment [2] was “binds” in each case.

Take “CG31365 full-length fused to the GAL4 activation domain (Drosophila melanogaster)”: the results for the binding result in [1] and in experiment [2] were “binds” and “no binding”, respectively.

As to “CG31365 1–455 fused to the GAL4 activation domain (Drosophila melanogaster) (domain or fragment)”, the binding entry in [1] was “binds”.

B1: dCTCF fused to the GAL4 activation domain (protein, UniProt Q9VS55 1-818)
chain: MPRRTKKDEDPEDLQTFLNNFHKEIEGNSDEKVVNTILEAISAEAIDLDENGAEAGGSKPMEEAEADLDHAEEAEEEEEDDEDKYFIDDEGNCYIKTTPKKQKELQKKLKQAAAKPGKATRSVVSTATNKSINLRPAKSTPKATTSKPPPEPKAISVRPARAAAAKAKQSAMPPPPALVVKVPAPRGRPRKNPVIPKPEPMDLERELEELVDEPDISSMVTELSDYTVDEAAVEAATATLTPNEAEVYEFEDNATTEDENADKKDVDFVLSNKEVKLKTASSTSQNSNASGHKYSCPHCPYTASKKFLITRHSRSHDVEPSFKCSICERSFRSNVGLQNHINTHMGNKPHKCKLCESAFTTSGELVRHTRYKHTKEKPHKCTECTYASVELTKLRRHMTCHTGERPYQCPHCTYASQDMFKLKRHMVIHTGEKKYQCDICKSRFTQSNSLKAHKLIHSVVDKPVFQCNYCPTTCGRKADLRVHIKHMHTSDVPMTCRRCGQQLPDRYQYKLHVKSHEGEKCYSCKLCSYASVTQRHLASHMLIHLDEKPFHCDQCPQAFRQRQLLRRHMNLVHNEEYQPPEPREKLHKCPSCPREFTHKGNLMRHMETHDDSANAREKRRRLKLGRNVRLQKDGTVITLIKDQYVDMDRDQEENEEDDNPESYDLAEIEPENSEAEDADDDVETIVSDPIRQRIKPAPIIINKQARLAASEKQPMIINQRLRSQRGTKTFHIKEEPDNSDFTVEWQGDDGEVMVVELVNGDEEVLVKHEPSANSKISAKNCFGFEDDDDYEEYGDGENEVDGASQEFLQLMDMIEQDS
As to B1, the binding result in [3] is on record as “no binding”; in [4], “binds”; in experiment [5], “no binding”; in [6] it was “no binding”; in experiment [7], “no binding”; in [8], “no binding”. Further, the binding entry is listed as “binds” in [9] and “no binding” in [10].

B2: 6×His-Thioredoxin-fused CP190 1–126 (BTB domain) (domain or fragment, UniProt Q24478 1-126)
chain: MGEVKSVKVDNWGVFFLQKLQNFFNKTDYCDLTLQFRDNSQLKVHRLVLSACTDYFNVLEQTCEIVDDALIMPNEFQADVVVPIVNFMYTGTLEFELKMYGKLLRTAKEMNMTVLLKLLEAHRRTM
As for B2, the binding entry is on record as “binds” in experiment [11], “binds weakly” in experiment [12], “binds” in [13] and “binds” in experiment [14].

B3: Pita fused to the GAL4 activation domain (protein, UniProt Q95RQ8 1-683)
chain: MAAKLEVREAMLTEKRVCRFCLTEQKLASIFEENPRVKTTANLPLQIMAITAIEVYAGDGMPGHICLECRLLFEHCYRFKQMCKRAETLLRQYPLTGNWPSPLEKPRAPMTMVASKKLLVVPAKTAEPSETPKKLLNTMAKSSSQVIIEDVQVLESAMVTPRTVAGSSPVPRRSHAYELKVDNNQELSMDDVQSMLEDMASELEKEFPDIPQKASPVKPKVLNKSSIRILNKGPAAPVEPRLATPKVKRDDSGNVAIVTEVLDSDLPLDDQDDPTKNAEKVATDVFPCPDCERSFPLQQLLEIHRLNHTRSRSFQCLLCEKSFFSKYDLAKHNFVHTGERPFKCAICSKAFTRKALLHRHERTHTDVPKFICVYCEKPFLSRQEMEKHAERHQKKRPFQCGVCTKSFAFKQGLERHETVHSTNLPFPCQHCERSFSTASKLARHLVAHAGKRAYPCKYCHKSYMLSHHLSRHLRTHTQTSDASFVCSECKVSYSNYNDLLDHALIHATASLKCPMCRKQIEDIDSVESHMDQHKQSERHACEFCDHIFLTQKCLQRHIEDDHVVEMEPYQNEFEDDGEGEGGVDEKEEHLDDFEDMDNVKQEEFVTEYLEDDALYEDHLDDSDESFTPPPPKQRKTNPPKDAQQSVRQTRSRDAQRITQKTGKNEGKPHHKLERNLKNRRSAK
As to B3, the binding entry in experiment [3], in [4], in experiment [5], in experiment [6], in experiment [7] and in experiment [8] was “binds” throughout. Besides, the binding result in [9] and in experiment [10] was “binds” each time.

Turning to VTVVTEEDDTIDFILADDEEVVPGRIENNNGQEIVVTE (domain or fragment, UniProt P08970 150-187) [Su(Hw) 150–187 fused to the GAL4 activation domain], the binding entry in experiment [3] is “no binding”; in experiment [4], “binds”; in experiment [5], “no binding”; in experiment [6], “no binding”; in experiment [7], “no binding”; in experiment [8], “no binding”. For the same molecule, the binding entry in experiment [9] and in [10] was “no binding” in each case.

The values are drawn from article PMC8618245, “Mechanisms of CP190 Interaction with Architectural Proteins in Drosophila Melanogaster” (International Journal of Molecular Sciences, 2021).
